Legend:
[1] = tested on: PC-3 cells; format: cell-based, human
[2] = tested on: HepG2 cells; format: cell-based, human
[3] = tested on: NRK-52E cells; format: cell-based, rat

With `COc1cc2c(c(OC)c1OC)-c1ccc(OC)c(=O)cc1[C@@H](NC(C)=O)CC2` [Colchicine, colchicine, reference compound] the “IC50 (%inhibition ± SD) PC-3” value [1] was 1.93 ± 0.28%, the “IC50 (%inhibition ± SD) HepG2” value [2] was 3.87 ± 0.22% and the “IC50 (%inhibition ± SD) NRK-52E” value [3] was 3.21 ± 0.67%.

From publication PMC8451688 (Journal of Enzyme Inhibition and Medicinal Chemistry, 2021)
